According to patent US9869668B2, “PDGF as a biomarker for predicting resistance or effect of c-Met targeting drugs” (SAMSUNG ELECTRONICS CO., LTD., priority 2014, dated 2018):
For at least one compound, name, drawing or mass did not settle the structure.

System: EBC1-SR#6 cell line (compared with EBC1 parental cell line)
Experiment: EZ-Cytox cell viability assay, 72 hours after treatment
Assay type: cell-based
Conditions: EBC1-SR#6 vs EBC1 parental cell line

**Q.** Which results are given for Cc1ccc(C(=O)Nc2ccc(CN3CCN(C)CC3)c(C(F)(F)F)c2)cc1C#Cc1cnc2cccnn12 [Ponatinib]?
**A.** IC50 (FIG. 2): decreased; chemosensitivity of EBC1-SR#6 cell line compared with EBC1 (sole treatment, FIG. 2/FIG. 3): increased
